This is one part of the list. These are further read-outs of the screen, such as a control signal, another cell line or another target. No call is given for them. Compounds called inactive in the main read-out are mostly missing here. Potencies come from curve fits of mixed quality, noted in brackets.
Test: qHTS Assay for Lipid Storage Modulators in Drosophila S3 Cells;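 on cell number change: cells counted by Cell Tracker Red CMTPX staining in the red channel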
Details: BODIPY lipid droplet fluorescence, 18-24 h; for cell number change: measured here: cell count max response, cells fed with added oleic acid
How it was run: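 Drosophila S3 cells got compounds at several concentrations plus oleic acid (400 uM solution). Laser-scanning cytometry with 488 nm excitation read lipid droplets at 500-530 nm and cells at 575-640 nm. Percent activity was relative to 20 uM Triacsin C.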

[1] = measured here: cell number channel AC50, cells fed with added oleic acid
[2] = measured here: lipid fluorescence (Fed channel) AC50, cells fed with added oleic acid

In the case of `N#Cc1cc(-c2ccccc2)nnc1Sc1ccc(F)cc1`, the cell number change is reported as 41.2%, the AC50 [1] is reported as 7.31 µM [rising, partial curve, poor fit] and the AC50 [2] is reported as 6.51 µM [rising, single point].
For `CCN(CC)S(=O)(=O)c1ccc(C)c(NC(=O)COC(=O)[C@@H]2CCCN2C(=O)c2cccs2)c1`, the cell number change was 55.5%.
With `COc1ccc(C2=CC(c3ccc(Cl)cc3)n3cnnc3N2)cc1OC` (stereo unspecified) the cell number change was -32.6%, the AC50 [1] was 16.4 µM [falling, single point] and the AC50 [2] was 29.1 µM [falling, single point].
In the case of `O=C(Nc1ccccc1N1CCN(c2ccc(F)cc2)CC1)C1CCCCC1`, the cell number change is reported as 31.2%, the AC50 [1] is reported as 1.64 µM [rising, partial curve] and the AC50 [2] is reported as 2.06 µM [rising, partial curve].
For `COc1ccc(CN2C(=NC(=O)C3CCCO3)SC3CS(=O)(=O)CC32)cc1OC` (stereo unspecified), the cell number change was 33.7% and the AC50 [1] was 20.6 µM [rising, single point].
For `O=C1CC(C2CCCO2)C(=O)N1c1ccc(Cl)c(Cl)c1` (stereo unspecified), the cell number change was -40.4%, the AC50 [1] was 14.6 µM [falling, single point] and the AC50 [2] was 9.2 µM [falling, partial curve].
With `CCOC(=O)c1nnc2ccnn2c1N` the cell number change was -16.2% and the AC50 [2] was 4.11 µM [falling, single point].
With `CN=C1NN=C(c2cc(C)n(-c3c(C)n(C)n(-c4ccccc4)c3=O)c2C)CS1` the cell number change was -8.41% and the AC50 [2] was 18.4 µM [rising, single point].
With `Cc1ccc(-n2c(Cl)c(Cl)[nH]c(=O)c2=O)cc1` the AC50 [2] was 0.116 µM [falling, full curve, poor fit].
In the case of `O=C(c1ccco1)N1CCN(C(c2ccccc2Cl)c2nnnn2Cc2cccs2)CC1` (stereo unspecified), the cell number change is reported as 8.77%, the AC50 [1] is reported as 5.8 µM [rising, single point] and the AC50 [2] is reported as 4.11 µM [rising, single point].
In the case of `CCOC(=O)c1cnc(-n2[nH]c(C)cc2=O)[nH]c1=O`, the cell number change is reported as -12%, the AC50 [1] is reported as 0.411 µM [rising, full curve, poor fit] and the AC50 [2] is reported as 0.116 µM [rising, full curve, poor fit].
For `CN1CCN(c2nc3c(c(=O)n(C)c(=O)n3C)n2Cc2ccccc2)CC1`, the cell number change was 6.57% and the AC50 [2] was 29.1 µM [rising, single point].
With `Cc1ccc2nc(SCC(=O)Nc3cccc(S(=O)(=O)N(C)C)c3)[nH]c2c1` the cell number change was -20.7% and the AC50 [2] was 29.1 µM [falling, single point].
For `Cc1noc(C)c1C(=O)N(CC(=O)Nc1ccc(Cl)c(C(F)(F)F)c1)Cc1ccco1`, the cell number change was -10.8% and the AC50 [2] was 13 µM [falling, partial curve].
In the case of `CNC(=O)c1nc[nH]c1C(=O)NC`, the cell number change is reported as -39% and the AC50 [1] is reported as 29.1 µM [falling, single point].
In the case of `COc1cc(C(=O)Nc2cc(C)ccn2)ccc1OCC(=O)N1CCOCC1`, the cell number change is reported as -36.9% and the AC50 [1] is reported as 16.4 µM [falling, single point].
For `CCOC(=O)C1(CC2CCCCO2)CCN(S(=O)(=O)c2ccc(C)s2)CC1` (stereo unspecified), the cell number change was -17.6% and the AC50 [2] was 23.1 µM [falling, single point].
In the case of `O=C(Oc1csc(=S)n1C(=O)c1ccccc1)c1ccccc1`, the cell number change is reported as -64.8%, the AC50 [1] is reported as 1.3 µM [falling, full curve] and the AC50 [2] is reported as 3.66 µM [falling, full curve].
In the case of `O=[N+]([O-])c1cc(-c2n(-c3ccccn3)c3ccccc3[n+]2-c2ccccn2)ccc1Cl`, the AC50 [2] is reported as 3.66 µM [falling, partial curve].
For `COc1cc(/C=N/NC(=O)c2ccc(Cl)c(S(N)(=O)=O)c2)ccc1OCC(N)=O`, the cell number change was 8.59% and the AC50 [2] was 6.51 µM [rising, single point].
For `CSc1ccc(CCNC(=O)C2CCCN(S(=O)(=O)N3CCOCC3)C2)cc1` (stereo unspecified), the AC50 [2] was 20.6 µM [rising, partial curve].
For `Cc1ccc(Nc2nc(NCCO)c3ccccc3n2)cc1C`, the cell number change was -33.1%, the AC50 [1] was 14.6 µM [falling, single point] and the AC50 [2] was 0.13 µM [falling, full curve, poor fit].
For `COC(=O)c1nn(-c2ccc(OC)cc2)c(=O)cc1Oc1cccc(Cl)c1`, the cell number change was -24.4% and the AC50 [2] was 29.1 µM [falling, single point].
For `CCOc1ccc2nc(NC(=O)CSc3nc(SC)ns3)sc2c1`, the cell number change was -73.1%, the AC50 [1] was 16.4 µM [falling, partial curve] and the AC50 [2] was 8.2 µM [falling, partial curve].
In the case of `CCSc1nc(O)c(Cc2ccccc2)c(=O)[nH]1`, the cell number change is reported as -35%, the AC50 [1] is reported as 8.2 µM [falling, partial curve] and the AC50 [2] is reported as 29.1 µM [falling, single point].
With `O=C(Cn1c(NCCCO)nc2ccccc21)c1cccc(Br)c1` the cell number change was 4.69% and the AC50 [2] was 18.4 µM [rising, single point].
With `Cn1c(SCC(=O)Nc2ccc3cn[nH]c3c2)nnc1-c1cnccn1` the cell number change was -15.1% and the AC50 [2] was 0.82 µM [rising, full curve, poor fit].
For `CCc1nnc(NC(=O)C(C)N2C(=O)C3C4C=CC(C4)C3C2=O)s1` (stereo unspecified), the cell number change was 17.7% and the AC50 [2] was 29.1 µM [rising, single point].
In the case of `Cc1cccc(NC(=O)c2ccc3c(c2)CCN3S(C)(=O)=O)c1C`, the cell number change is reported as -9.68% and the AC50 [2] is reported as 0.82 µM [falling, full curve].
With `COc1ccc(C(=O)NCc2ccc3c(c2)OCO3)cc1S(=O)(=O)N(C)Cc1ccccc1` the cell number change was 9.07% and the AC50 [2] was 1.64 µM [rising, partial curve].
With `CN(Cc1cnn(Cc2ccccc2)c1)C(=O)c1cccc(S(=O)(=O)N2CCOCC2)c1` the cell number change was 3.16% and the AC50 [2] was 0.0259 µM [falling, full curve, poor fit].
In the case of `Cc1occc1-c1nnc(SCC(=O)N2CCCCC2C)o1` (stereo unspecified), the cell number change is reported as -2.08% and the AC50 [2] is reported as 1.64 µM [falling, partial curve, poor fit].
For `COc1ccc(CCNC(=O)CSc2ccc(NC(C)=O)cc2)cc1OC`, the cell number change was 9.91% and the AC50 [2] was 0.82 µM [rising, full curve].
With `CC(O)CSc1nc2c(c(=O)[nH]c(=O)n2C)n1Cc1ccccc1Cl` (stereo unspecified) the cell number change was -20.6% and the AC50 [2] was 25.9 µM [falling, single point].
In the case of `COc1ccc(/C=C(/C#N)C(=O)Nc2cccc(C)c2C)cc1C(=O)O`, the AC50 [1] is reported as 0.517 µM [rising, full curve, poor fit] and the AC50 [2] is reported as 0.651 µM [rising, full curve].
For `COc1ccc(C2C(C(=O)NCc3cccnc3)c3ccccc3C(=O)N2C)cc1OC` (stereo unspecified), the AC50 [2] was 2.31 µM [falling, full curve].
With `CC(=O)Nc1ccc(-c2csc(-c3cccnc3)n2)cc1` the cell number change was -14.4% and the AC50 [2] was 29.1 µM [falling, single point].
In the case of `COc1ccc(-c2c(C)oc3c(CN4CCCC(C)C4)c(O)ccc3c2=O)cc1OC` (stereo unspecified), the cell number change is reported as 31.9% and the AC50 [2] is reported as 0.58 µM [rising, single point].
`CC(c1ccccc1)N1CC(C(=O)O)CC1=O` (stereo unspecified) gave a cell number change of 21.5%.
With `Cc1ccc(C)c(OC(C)C(=O)Nc2nccs2)c1` (stereo unspecified) the cell number change was -4.05% and the AC50 [2] was 0.731 µM [rising, single point].
With `O=C(O)C1CCCCC1C(=O)Nc1ccc(OCc2ccccc2)cc1` (stereo unspecified) the cell number change was -10.2% and the AC50 [2] was 20.6 µM [rising, partial curve].
In the case of `NC(=O)c1ccc(-n2nnnc2SCC(=O)Nc2ccccc2F)cc1`, the cell number change is reported as 51.5% and the AC50 [1] is reported as 29.1 µM [rising, single point].
For `CCOc1ccc(C(=O)Nc2ccccc2OC(F)F)cc1`, the cell number change was 57.9%, the AC50 [1] was 20.6 µM [rising, partial curve] and the AC50 [2] was 23.1 µM [rising, single point].
With `CC(C)CCNC(=O)c1ccc2c(c1)N(Cc1ccccc1)C(=O)CS2=O` (stereo unspecified) the AC50 [2] was 6.51 µM [rising, single point].
For `O=C(NCC1CCCO1)c1nn2c(C(F)(F)F)cc(-c3cccs3)nc2c1Cl` (stereo unspecified), the cell number change was 4.7% and the AC50 [2] was 1.64 µM [falling, partial curve, poor fit].
Work on `CC(=O)c1c(C)[nH]c(C(=O)CN2C(=O)NC(C)(CCC(C)C)C2=O)c1C` (stereo unspecified) yielded a cell number change of 28.3%.
`COc1ccc(NC(=O)CNCCC2=CCCCC2)cc1` gave a cell number change of 4.22%.
With `CCOC(=O)Cc1nnc(NC(=O)COc2ccc(F)cc2)s1` the cell number change was -16% and the AC50 [2] was 0.146 µM [rising, full curve].
In the case of `CC1CCCN(CCCNC(=O)c2ccc(N3CCCC3=O)cc2)C1` (stereo unspecified), the AC50 [2] is reported as 9.2 µM [rising, partial curve].
For `CCOC(=O)c1nnn(-c2nc(OC)nc(N3CCCCC3)n2)c1-c1ccccc1`, the cell number change was -11.7% and the AC50 [2] was 0.00411 µM [falling, full curve, poor fit].
In the case of `C=C(C)COc1ccc(-c2nc(N)ncc2-c2ccc(Br)cc2)c(O)c1`, the cell number change is reported as -23.4% and the AC50 [2] is reported as 29.1 µM [falling, partial curve, poor fit].
For `COCCCNC(=O)CCc1c(C)nc2c(c(C)nn2-c2ccccc2)c1C`, the AC50 [1] was 0.00461 µM [rising, full curve, poor fit].
For `CCCOc1ccc(S(=O)(=O)NCCCN2CCOCC2)c2ccccc12`, the cell number change was -15.1% and the AC50 [2] was 16.4 µM [falling, partial curve].
`COc1cc(OC)cc(C(=O)N2CCN(S(C)(=O)=O)CC2)c1` gave a cell number change of -13.3%.
In the case of `O=C(COc1ccc(Cl)cc1)Nc1nc(-c2ccncc2)cs1`, the cell number change is reported as 20.4% and the AC50 [2] is reported as 0.103 µM [rising, full curve, poor fit].
For `CCOC(=O)N1CCN(C(=O)CN(C)S(=O)(=O)c2ccc(OCC)cc2)CC1`, the cell number change was 0.87% and the AC50 [2] was 29.1 µM [rising, partial curve].
For `COc1cc(C2c3c(n[nH]c3C)C(=O)N2c2ccc(Br)cc2)ccc1O` (stereo unspecified), the AC50 [1] was 1.84 µM [rising, partial curve] and the AC50 [2] was 4.61 µM [rising, single point].
In the case of `CN(C)S(=O)(=O)N1CCC(Oc2ccc(C(=O)NC3Cc4ccccc4C3)cc2)CC1`, the cell number change is reported as 19.9%, the AC50 [1] is reported as 0.103 µM [rising, full curve, poor fit] and the AC50 [2] is reported as 29.1 µM [rising, single point].

Source: PubChem BioAssay AID2685 (National Center for Advancing Translational Sciences (NCATS), 2010)
